± gives the standard deviation of the averaged measurements. Most values lie at the level of the controls, where differences are scatter.
Columns and labels:
Assay in all cases: level (log10 ratio to DMSO vehicle control); higher = higher biomarker level / cell amount than vehicle control
[1] = compound: FC(F)(F)C(F)(F)C(F)(F)C(F)(F)CCI [1H,1H,2H,2H-Perfluorohexyl iodide] (in DMSO); conditions: 2200 nM
Protocol: (§1)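 BioMAP Diversity Plus panel of 12 human primary cell co-culture systems (3C, 4H, LPS, SAg, BT, BF4T, BE3C, CASM3C, HDF3CGF, KF3CT, MyoF, Mphg). Compounds were added 1 h before stimulation and left for 24 h (MyoF 48 h; BT 72 h for soluble read-outs or 6 d for IgG). Biomarkers were read by ELISA, cytotoxicity by SRB, PBMC viability and proliferation by Alamar Blue. Each well value was divided by the mean of 8 DMSO control wells on the same plate and log10 transformed; duplicate blinded samples were tested at 4 concentrations.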

Hexafluoroglutaric acid = compound: O=C(O)C(F)(F)C(F)(F)C(F)(F)C(=O)O [Hexafluoroglutaric acid] (in DMSO)
Protocol: as §1

[2] = compound: FC(F)(F)C(F)(F)CNCC(F)(F)C(F)(F)F [Bis(1H,1H-perfluoropropyl)amine] (in DMSO); conditions: 2200 nM
Protocol: as §1

[3] = compound: OCC(F)(F)C(F)(F)C(F)(F)C(F)(F)C(F)(F)C(F)(F)F [6:1 Fluorotelomer alcohol] (in DMSO); conditions: 2200 nM
Protocol: as §1

[4] = compound: FC(F)(F)COC(OCC(F)(F)F)OCC(F)(F)F [tris(Trifluoroethoxy)methane] (in DMSO); conditions: 2200 nM
Protocol: as §1

[5] = compound: O=C(O)C(F)(OC(F)(F)C(F)(F)C(F)(F)F)C(F)(F)F [Ammonium perfluoro-2-methyl-3-oxahexanoate] (in Water)
Protocol: as §1

[6] = compound: OCCCC(F)(F)C(F)(F)C(F)(F)C(F)(F)C(F)(F)C(F)(F)C(F)(F)C(F)(F)F [3-(Perfluorooctyl)propanol] (in DMSO); conditions: 2200 nM
Protocol: as §1

[7] = compound: O=C(O)C(F)(OC(F)(F)C(F)(OC(F)(F)C(F)(OC(F)(F)C(F)(F)C(F)(F)F)C(F)(F)F)C(F)(F)F)C(F)(F)F [Perfluoro-(2,5,8-trimethyl-3,6,9-trioxadodecanoic)acid] (in DMSO); conditions: 370 nM
Protocol: as §1

[8] = compound: O=C(O)C(F)(F)C(F)(F)C(F)(F)OC(F)(C(F)(F)F)C(F)(F)F [Perfluoro-4-isopropoxybutanoic acid] (in DMSO); conditions: 2200 nM
Protocol: as §1

[9] = compound: O=S(=O)(O)C(F)(F)C(F)(F)C(F)(F)C(F)(F)F [Perfluorobutanesulfonic acid] (in DMSO)
Protocol: as §1

[10] = compound: OCC(F)(F)C(F)(F)C(F)(F)C(F)(F)C(F)(F)C(F)(F)CO [1H,1H,8H,8H-Perfluorooctane-1,8-diol] (in DMSO); conditions: 2200 nM
Protocol: as §1

[11] = compound: C=C(C)C(=O)OCCC(F)(F)C(F)(F)C(F)(F)C(F)(F)C(F)(F)C(F)(F)F [6:2 Fluorotelomer methacrylate] (in DMSO); conditions: 2200 nM
Protocol: as §1

[12] = compound: OCC(F)(F)C(F)(F)C(F)(F)C(F)F [1H,1H,5H-Perfluoropentanol] (in DMSO); conditions: 2200 nM
Protocol: as §1

Perfluorohexanoic acid = compound: O=C(O)C(F)(F)C(F)(F)C(F)(F)C(F)(F)C(F)(F)F [Perfluorohexanoic acid] (in DMSO)
Protocol: as §1

[13] = compound: OCC(F)(F)OC(F)(F)C(F)(F)OC(F)(F)CO [1H,1H,8H,8H-Perfluoro-3,6-dioxaoctane-1,8-diol] (in DMSO); conditions: 2200 nM
Protocol: as §1

[14] = compound: O=C(O)CCC(F)(F)C(F)(F)C(F)(F)F [3:3 Fluorotelomer carboxylic acid] (in DMSO); conditions: 2200 nM
Protocol: as §1

[15] = compound: CNS(=O)(=O)C(F)(F)C(F)(F)C(F)(F)C(F)(F)C(F)(F)C(F)(F)C(F)(F)C(F)(F)F [N-Methylperfluorooctanesulfonamide] (in DMSO); conditions: 2200 nM
Protocol: as §1

With 3C:CD87/uPAR the “level (log10)” value [1] was -0.0015 ± 0.0021, the “level (log10)” value (Hexafluoroglutaric acid; 2200 nM) was -0.0005 ± 0.035 and the “level (log10)” value (Hexafluoroglutaric acid; 6700 nM) was -0.0075 ± 0.018. For the same test system, the “level (log10)” value (Hexafluoroglutaric acid; 20000 nM) was -0.0105 ± 0.028, the “level (log10)” value (Hexafluoroglutaric acid; 60000 nM) was 0.0025 ± 0.013 and the “level (log10)” value [2] was 0.019 ± 0.025. For the same test system, the “level (log10)” value [3] was 0.005, the “level (log10)” value [4] was -0.0425 ± 0.022 and the “level (log10)” value ([5]; 2200 nM) was 0.0065 ± 0.036. For the same test system, the “level (log10)” value ([5]; 6700 nM) was -0.016 ± 0.054, the “level (log10)” value ([5]; 20000 nM) was -0.0085 ± 0.028 and the “level (log10)” value ([5]; 60000 nM) was -0.042 ± 0.021. For the same test system, the “level (log10)” value [6] was -0.005 ± 0.041, the “level (log10)” value [7] was 0.0045 ± 0.0078 and the “level (log10)” value [8] was -0.015 ± 0.05. For the same test system, the “level (log10)” value ([9]; 2200 nM) was -0.0295 ± 0.0021, the “level (log10)” value ([9]; 6700 nM) was -0.007 ± 0.027 and the “level (log10)” value ([9]; 20000 nM) was -0.0075 ± 0.00071. The “level (log10)” value ([9]; 60000 nM) was -0.0235 ± 0.022, the “level (log10)” value [10] was 0.014 ± 0.0014 and the “level (log10)” value [11] was -0.033 ± 0.0042. The “level (log10)” value [12] was -0.0065 ± 0.0021, the “level (log10)” value (Perfluorohexanoic acid; 2200 nM) was -0.0105 ± 0.0064 and the “level (log10)” value (Perfluorohexanoic acid; 6700 nM) was -0.0065 ± 0.0035. For the same test system, the “level (log10)” value (Perfluorohexanoic acid; 20000 nM) was -0.0115 ± 0.00071, the “level (log10)” value (Perfluorohexanoic acid; 60000 nM) was -0.01 ± 0.0099 and the “level (log10)” value [13] was 0.006 ± 0.017. The “level (log10)” value [14] was 0.006 ± 0.0057 and the “level (log10)” value [15] was 0.0465 ± 0.021.

For 3C:CD106/VCAM-1, the “level (log10)” value [1] was 0.013 ± 0.0099, the “level (log10)” value (Hexafluoroglutaric acid; 2200 nM) was 0.0095 ± 0.0078 and the “level (log10)” value (Hexafluoroglutaric acid; 6700 nM) was 0.009 ± 0.018. For the same test system, the “level (log10)” value (Hexafluoroglutaric acid; 20000 nM) was 0.004 ± 0.021, the “level (log10)” value (Hexafluoroglutaric acid; 60000 nM) was -0.008 ± 0.0057 and the “level (log10)” value [2] was -0.009 ± 0.025. For the same test system, the “level (log10)” value [3] was 0.001 ± 0.035, the “level (log10)” value [4] was -0.0115 ± 0.013 and the “level (log10)” value ([5]; 2200 nM) was -0.0065 ± 0.0078. The “level (log10)” value ([5]; 6700 nM) was -0.0065 ± 0.0035, the “level (log10)” value ([5]; 20000 nM) was -0.0245 ± 0.0035 and the “level (log10)” value ([5]; 60000 nM) was -0.0155 ± 0.00071. For the same test system, the “level (log10)” value [6] was -0.017 ± 0.0014, the “level (log10)” value [7] was 0.003 ± 0.052 and the “level (log10)” value [8] was -0.012 ± 0.023. For the same test system, the “level (log10)” value ([9]; 2200 nM) was -0.0205 ± 0.023, the “level (log10)” value ([9]; 6700 nM) was -0.0215 ± 0.015 and the “level (log10)” value ([9]; 20000 nM) was -0.016 ± 0.025. For the same test system, the “level (log10)” value ([9]; 60000 nM) was -0.006 ± 0.013, the “level (log10)” value [10] was -0.011 ± 0.0014 and the “level (log10)” value [11] was -0.013 ± 0.03. The “level (log10)” value [12] was -0.0035 ± 0.023, the “level (log10)” value (Perfluorohexanoic acid; 2200 nM) was 0.0115 ± 0.005 and the “level (log10)” value (Perfluorohexanoic acid; 6700 nM) was -0.002 ± 0.018. For the same test system, the “level (log10)” value (Perfluorohexanoic acid; 20000 nM) was -0.0025 ± 0.029, the “level (log10)” value (Perfluorohexanoic acid; 60000 nM) was 0.005 ± 0.044 and the “level (log10)” value [13] was -0.001 ± 0.018. The “level (log10)” value [14] was -0.009 ± 0.025 and the “level (log10)” value [15] was -0.01 ± 0.018.

With 3C:CD141/Thrombomodulin the “level (log10)” value [1] was -0.017 ± 0.059, the “level (log10)” value (Hexafluoroglutaric acid; 2200 nM) was -0.011 ± 0.02 and the “level (log10)” value (Hexafluoroglutaric acid; 6700 nM) was -0.018 ± 0.017. For the same test system, the “level (log10)” value (Hexafluoroglutaric acid; 20000 nM) was -0.014 ± 0.011, the “level (log10)” value (Hexafluoroglutaric acid; 60000 nM) was -0.034 ± 0.0099 and the “level (log10)” value [2] was 0.0375 ± 0.0078. For the same test system, the “level (log10)” value [3] was -0.009 ± 0.0042, the “level (log10)” value [4] was -0.001 ± 0.05 and the “level (log10)” value ([5]; 2200 nM) was -0.027 ± 0.048. The “level (log10)” value ([5]; 6700 nM) was -0.0395 ± 0.03, the “level (log10)” value ([5]; 20000 nM) was -0.0315 ± 0.011 and the “level (log10)” value ([5]; 60000 nM) was -0.057 ± 0.0028. The “level (log10)” value [6] was -0.0035 ± 0.013, the “level (log10)” value [7] was -0.014 ± 0.03 and the “level (log10)” value [8] was -0.0265 ± 0.019. The “level (log10)” value ([9]; 2200 nM) was -0.0155 ± 0.061, the “level (log10)” value ([9]; 6700 nM) was -0.0185 ± 0.049 and the “level (log10)” value ([9]; 20000 nM) was -0.019 ± 0.0085. The “level (log10)” value ([9]; 60000 nM) was -0.054 ± 0.0085, the “level (log10)” value [10] was 0.007 ± 0.017 and the “level (log10)” value [11] was -0.0105 ± 0.028. For the same test system, the “level (log10)” value [12] was 0.005 ± 0.0014, the “level (log10)” value (Perfluorohexanoic acid; 2200 nM) was 0 ± 0.02 and the “level (log10)” value (Perfluorohexanoic acid; 6700 nM) was -0.0205 ± 0.005. For the same test system, the “level (log10)” value (Perfluorohexanoic acid; 20000 nM) was -0.022 ± 0.027, the “level (log10)” value (Perfluorohexanoic acid; 60000 nM) was -0.006 and the “level (log10)” value [13] was -0.01 ± 0.031. For the same test system, the “level (log10)” value [14] was -0.01 ± 0.033 and the “level (log10)” value [15] was 0.0035 ± 0.021.

3C:CD142/Tissue Factor was tested, and the “level (log10)” value [1] was -0.01 ± 0.031, the “level (log10)” value (Hexafluoroglutaric acid; 2200 nM) was -0.0005 ± 0.011 and the “level (log10)” value (Hexafluoroglutaric acid; 6700 nM) was -0.006 ± 0.02. For the same test system, the “level (log10)” value (Hexafluoroglutaric acid; 20000 nM) was -0.004 ± 0.028, the “level (log10)” value (Hexafluoroglutaric acid; 60000 nM) was -0.0685 ± 0.005 and the “level (log10)” value [2] was 0.0455 ± 0.023. For the same test system, the “level (log10)” value [3] was 0.0075 ± 0.019, the “level (log10)” value [4] was -0.0055 ± 0.04 and the “level (log10)” value ([5]; 2200 nM) was 0.0975 ± 0.054. The “level (log10)” value ([5]; 6700 nM) was 0.0735 ± 0.012, the “level (log10)” value ([5]; 20000 nM) was 0.0805 ± 0.0078 and the “level (log10)” value ([5]; 60000 nM) was 0.0805 ± 0.00071. The “level (log10)” value [6] was -0.034 ± 0.051, the “level (log10)” value [7] was -0.0065 ± 0.013 and the “level (log10)” value [8] was 0 ± 0.033. For the same test system, the “level (log10)” value ([9]; 2200 nM) was 0.0035 ± 0.00071, the “level (log10)” value ([9]; 6700 nM) was 0.003 ± 0.0028 and the “level (log10)” value ([9]; 20000 nM) was 0.001 ± 0.0071. The “level (log10)” value ([9]; 60000 nM) was -0.005 ± 0.038, the “level (log10)” value [10] was 0.006 ± 0.037 and the “level (log10)” value [11] was -0.02 ± 0.073. The “level (log10)” value [12] was 0.0115 ± 0.0078, the “level (log10)” value (Perfluorohexanoic acid; 2200 nM) was 0.006 ± 0.017 and the “level (log10)” value (Perfluorohexanoic acid; 6700 nM) was 0.011 ± 0.0085. For the same test system, the “level (log10)” value (Perfluorohexanoic acid; 20000 nM) was -0.0135 ± 0.0092, the “level (log10)” value (Perfluorohexanoic acid; 60000 nM) was 0.0005 ± 0.012 and the “level (log10)” value [13] was 0.0255 ± 0.018. For the same test system, the “level (log10)” value [14] was 0.029 ± 0.011 and the “level (log10)” value [15] was -0.0275 ± 0.042.

Source: the supplement of paper PMC10331698
